Laboratory results as given in article PMC11701798.

Chains of the proteins cited; added tags and fusions are not shown.
UniProt Q39255: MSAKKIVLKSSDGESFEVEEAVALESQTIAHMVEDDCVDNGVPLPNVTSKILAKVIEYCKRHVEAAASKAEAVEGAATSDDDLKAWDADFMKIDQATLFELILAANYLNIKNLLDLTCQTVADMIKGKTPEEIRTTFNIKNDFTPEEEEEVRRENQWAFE
UniProt P30186: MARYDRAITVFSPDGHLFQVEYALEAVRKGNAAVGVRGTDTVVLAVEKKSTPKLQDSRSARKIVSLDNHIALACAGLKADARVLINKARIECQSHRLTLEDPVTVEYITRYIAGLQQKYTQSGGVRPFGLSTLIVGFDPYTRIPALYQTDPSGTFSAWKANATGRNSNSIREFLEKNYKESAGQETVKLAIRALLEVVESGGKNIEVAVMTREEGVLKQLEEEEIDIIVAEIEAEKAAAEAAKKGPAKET
UniProt Q9MAT0: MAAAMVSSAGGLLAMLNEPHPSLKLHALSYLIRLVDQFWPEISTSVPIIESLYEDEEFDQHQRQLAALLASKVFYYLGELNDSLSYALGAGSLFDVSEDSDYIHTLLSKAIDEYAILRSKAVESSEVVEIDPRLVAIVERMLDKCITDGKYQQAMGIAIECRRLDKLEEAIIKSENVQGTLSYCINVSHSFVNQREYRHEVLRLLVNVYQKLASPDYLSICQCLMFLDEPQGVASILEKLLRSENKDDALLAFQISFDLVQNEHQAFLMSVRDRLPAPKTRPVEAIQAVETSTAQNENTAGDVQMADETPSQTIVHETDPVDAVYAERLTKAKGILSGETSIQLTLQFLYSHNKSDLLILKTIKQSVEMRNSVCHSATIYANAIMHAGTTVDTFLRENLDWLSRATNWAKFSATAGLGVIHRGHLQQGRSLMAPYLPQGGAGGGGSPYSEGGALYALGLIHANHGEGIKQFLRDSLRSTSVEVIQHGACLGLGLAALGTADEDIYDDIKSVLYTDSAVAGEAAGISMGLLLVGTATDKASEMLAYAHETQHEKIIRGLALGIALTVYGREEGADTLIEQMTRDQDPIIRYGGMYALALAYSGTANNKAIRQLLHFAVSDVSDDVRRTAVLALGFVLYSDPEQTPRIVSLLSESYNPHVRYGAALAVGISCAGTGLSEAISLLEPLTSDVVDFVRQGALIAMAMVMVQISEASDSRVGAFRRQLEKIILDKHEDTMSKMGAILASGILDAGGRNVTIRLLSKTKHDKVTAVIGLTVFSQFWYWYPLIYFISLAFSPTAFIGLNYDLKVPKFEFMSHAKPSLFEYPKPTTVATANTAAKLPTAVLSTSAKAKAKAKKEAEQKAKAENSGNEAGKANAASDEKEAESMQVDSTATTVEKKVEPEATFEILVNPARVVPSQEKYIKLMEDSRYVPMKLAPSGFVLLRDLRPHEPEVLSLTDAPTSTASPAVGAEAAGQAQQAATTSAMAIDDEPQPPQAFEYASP
UniProt Q8H0T4: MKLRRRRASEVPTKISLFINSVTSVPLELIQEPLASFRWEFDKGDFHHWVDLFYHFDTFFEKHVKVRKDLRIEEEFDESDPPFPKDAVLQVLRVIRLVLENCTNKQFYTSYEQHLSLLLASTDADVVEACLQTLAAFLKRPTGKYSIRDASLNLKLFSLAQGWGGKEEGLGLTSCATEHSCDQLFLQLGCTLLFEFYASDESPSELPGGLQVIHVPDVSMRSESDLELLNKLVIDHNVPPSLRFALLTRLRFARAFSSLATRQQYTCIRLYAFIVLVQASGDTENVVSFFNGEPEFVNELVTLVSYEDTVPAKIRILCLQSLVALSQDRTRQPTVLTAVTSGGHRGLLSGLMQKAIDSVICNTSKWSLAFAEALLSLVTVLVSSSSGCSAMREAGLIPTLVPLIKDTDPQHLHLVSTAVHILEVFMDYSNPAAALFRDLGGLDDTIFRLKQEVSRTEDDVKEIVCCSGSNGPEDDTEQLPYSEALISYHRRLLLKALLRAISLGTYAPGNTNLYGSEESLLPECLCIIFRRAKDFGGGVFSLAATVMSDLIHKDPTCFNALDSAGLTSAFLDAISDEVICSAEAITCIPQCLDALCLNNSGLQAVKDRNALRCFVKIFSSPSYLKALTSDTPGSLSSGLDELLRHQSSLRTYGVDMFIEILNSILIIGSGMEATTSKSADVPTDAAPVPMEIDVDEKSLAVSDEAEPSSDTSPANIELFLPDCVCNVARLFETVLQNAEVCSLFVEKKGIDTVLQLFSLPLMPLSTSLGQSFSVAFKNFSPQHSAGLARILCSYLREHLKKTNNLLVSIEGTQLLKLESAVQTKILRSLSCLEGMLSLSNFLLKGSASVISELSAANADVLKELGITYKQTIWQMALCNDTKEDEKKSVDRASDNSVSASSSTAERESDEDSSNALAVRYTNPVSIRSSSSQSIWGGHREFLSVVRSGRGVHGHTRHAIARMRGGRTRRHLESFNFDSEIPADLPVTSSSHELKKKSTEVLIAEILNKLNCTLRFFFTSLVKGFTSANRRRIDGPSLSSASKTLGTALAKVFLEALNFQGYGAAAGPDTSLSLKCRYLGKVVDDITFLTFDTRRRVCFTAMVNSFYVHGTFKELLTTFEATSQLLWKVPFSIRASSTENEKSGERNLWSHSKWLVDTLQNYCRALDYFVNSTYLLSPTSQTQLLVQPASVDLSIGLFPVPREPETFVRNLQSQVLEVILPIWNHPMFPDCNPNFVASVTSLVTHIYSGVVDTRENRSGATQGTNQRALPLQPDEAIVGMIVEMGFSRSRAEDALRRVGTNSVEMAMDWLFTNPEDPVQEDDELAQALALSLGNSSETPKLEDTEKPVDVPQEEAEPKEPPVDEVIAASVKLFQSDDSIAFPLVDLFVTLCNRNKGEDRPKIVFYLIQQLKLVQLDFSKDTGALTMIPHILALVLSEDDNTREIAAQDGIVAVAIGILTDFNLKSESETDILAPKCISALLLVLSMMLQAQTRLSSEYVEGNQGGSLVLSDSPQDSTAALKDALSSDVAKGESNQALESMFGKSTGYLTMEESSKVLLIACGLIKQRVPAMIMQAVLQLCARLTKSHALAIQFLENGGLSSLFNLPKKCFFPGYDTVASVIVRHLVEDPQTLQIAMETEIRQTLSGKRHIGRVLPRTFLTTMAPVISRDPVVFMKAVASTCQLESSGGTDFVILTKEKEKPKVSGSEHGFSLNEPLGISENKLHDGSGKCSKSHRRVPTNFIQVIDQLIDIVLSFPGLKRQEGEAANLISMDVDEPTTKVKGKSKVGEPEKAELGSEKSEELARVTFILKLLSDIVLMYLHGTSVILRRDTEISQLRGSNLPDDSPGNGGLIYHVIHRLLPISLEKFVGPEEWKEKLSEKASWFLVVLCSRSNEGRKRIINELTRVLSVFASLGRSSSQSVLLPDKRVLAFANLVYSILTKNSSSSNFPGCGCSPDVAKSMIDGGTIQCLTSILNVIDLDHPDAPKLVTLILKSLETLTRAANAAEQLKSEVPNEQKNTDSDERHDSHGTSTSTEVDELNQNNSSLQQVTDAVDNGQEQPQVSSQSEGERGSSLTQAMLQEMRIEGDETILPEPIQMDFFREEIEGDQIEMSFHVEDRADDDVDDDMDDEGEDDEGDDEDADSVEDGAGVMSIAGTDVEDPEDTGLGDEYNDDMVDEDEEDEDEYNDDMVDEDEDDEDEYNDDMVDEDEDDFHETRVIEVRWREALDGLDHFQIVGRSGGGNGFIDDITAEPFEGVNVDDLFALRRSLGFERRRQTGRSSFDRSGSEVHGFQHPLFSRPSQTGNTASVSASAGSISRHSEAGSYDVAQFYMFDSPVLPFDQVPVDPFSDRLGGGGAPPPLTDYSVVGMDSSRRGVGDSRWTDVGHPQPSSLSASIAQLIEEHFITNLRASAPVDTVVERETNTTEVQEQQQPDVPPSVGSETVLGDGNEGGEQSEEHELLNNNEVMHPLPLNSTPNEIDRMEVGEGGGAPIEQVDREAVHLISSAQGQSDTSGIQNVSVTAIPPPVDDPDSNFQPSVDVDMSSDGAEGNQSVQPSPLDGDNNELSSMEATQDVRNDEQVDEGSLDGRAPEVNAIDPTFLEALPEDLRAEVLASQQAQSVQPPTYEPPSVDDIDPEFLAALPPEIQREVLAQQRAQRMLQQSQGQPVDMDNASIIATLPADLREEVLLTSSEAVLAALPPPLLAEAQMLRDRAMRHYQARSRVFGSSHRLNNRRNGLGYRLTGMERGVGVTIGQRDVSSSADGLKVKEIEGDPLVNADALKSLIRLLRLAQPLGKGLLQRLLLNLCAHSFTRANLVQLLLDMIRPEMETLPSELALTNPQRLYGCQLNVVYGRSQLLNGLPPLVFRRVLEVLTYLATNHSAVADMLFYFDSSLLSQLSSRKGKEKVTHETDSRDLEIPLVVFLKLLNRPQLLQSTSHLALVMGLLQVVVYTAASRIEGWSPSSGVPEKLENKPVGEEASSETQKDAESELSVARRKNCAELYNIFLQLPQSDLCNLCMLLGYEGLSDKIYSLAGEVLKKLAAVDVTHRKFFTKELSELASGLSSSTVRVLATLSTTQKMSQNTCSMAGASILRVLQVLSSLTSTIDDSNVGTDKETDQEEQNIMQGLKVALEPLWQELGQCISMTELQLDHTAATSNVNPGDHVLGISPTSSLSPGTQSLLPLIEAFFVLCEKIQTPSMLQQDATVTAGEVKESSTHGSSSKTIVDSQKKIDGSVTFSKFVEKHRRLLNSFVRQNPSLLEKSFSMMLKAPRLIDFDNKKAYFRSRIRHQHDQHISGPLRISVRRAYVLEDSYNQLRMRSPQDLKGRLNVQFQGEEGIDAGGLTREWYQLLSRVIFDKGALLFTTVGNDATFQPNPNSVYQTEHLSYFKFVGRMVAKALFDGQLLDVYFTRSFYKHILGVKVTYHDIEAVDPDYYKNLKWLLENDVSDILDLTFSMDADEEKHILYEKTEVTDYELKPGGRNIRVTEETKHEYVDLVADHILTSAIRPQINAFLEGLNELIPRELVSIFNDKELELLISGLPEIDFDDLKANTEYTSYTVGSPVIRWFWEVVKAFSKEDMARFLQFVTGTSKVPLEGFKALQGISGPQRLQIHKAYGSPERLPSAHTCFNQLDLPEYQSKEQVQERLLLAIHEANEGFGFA

T1: ACS7‐GFP‐His (Arabidopsis thaliana) (UniProt Q9STR4)
T1 sequence: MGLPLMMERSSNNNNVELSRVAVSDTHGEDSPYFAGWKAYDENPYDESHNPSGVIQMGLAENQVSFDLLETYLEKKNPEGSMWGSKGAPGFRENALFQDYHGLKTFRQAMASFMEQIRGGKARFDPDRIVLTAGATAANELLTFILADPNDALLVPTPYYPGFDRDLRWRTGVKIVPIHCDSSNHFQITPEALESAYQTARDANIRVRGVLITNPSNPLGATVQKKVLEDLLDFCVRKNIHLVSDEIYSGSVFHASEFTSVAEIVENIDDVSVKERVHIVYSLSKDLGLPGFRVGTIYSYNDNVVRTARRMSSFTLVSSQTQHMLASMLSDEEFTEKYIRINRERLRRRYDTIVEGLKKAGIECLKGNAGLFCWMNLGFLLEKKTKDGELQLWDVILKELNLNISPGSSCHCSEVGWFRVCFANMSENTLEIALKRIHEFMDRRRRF


What follows are molecules tested against T1, ACS7‐GFP‐His (Arabidopsis thaliana) (assay: affinity purification with mass spectrometry; ACS7-GFP-His overexpressed in WT Col-0 Arabidopsis mesophyll protoplasts treated with MG132; lysate (10 mM Tris-HCl pH 7.5, 150 mM NaCl, 0.5% Nonidet P40) on GFP-trap agarose overnight at 4°C; LC-MS/MS; proteins found in non-transformed control protoplasts removed; triplicate).

Molecule | binding
SKP1, S phase kinase‐associated protein 1 (from UniProt Q39255 1-160) | binds
UPL1, ubiquitin‐protein ligase 1 (from UniProt Q8GY23 1-3681) (enzyme) | binds
ubiquitin‐specific protease UBP6 (enzyme, UniProt Q949Y0 1-482) MPTVSVKWQKKVLDGIEIDVSLPPYVFKAQLYDLTGVPPERQKIMVKGGLLKDDGDWAAIGVKDGQKLMMMGTADEIVKAPEKAIVFAEDLPEEALATNLGYSAGLVNLGNTCYMNSTVQCLKSVPELKSALSNYSLAARSNDVDQTSHMLTVATRELFGELDRSVNAVSPSQFWMVLRKKYPQFSQLQNGMHMQQDAEECWTQLLYTLSQSLKAPTSSEGADAVKALFGVNLQSRLHCQESGEESSETESVYSLKCHISHEVNHLHEGLKHGLKGELEKTSPALGRTALYVKESLIDSLPRYLTVQFVRFFWKRESNQKAKILRKVDYPLVLDIFDLCSEDLRKKLEAPRQKLREEEGKKLGLQTSAKSGSKDSDVKMTDAEASANGSGESSTVNPQEGTSSEKETHMTGIYDLVAVLTHKGRSADSGHYVAWVKQESGKWIQYDDDNPSMQREEDITKLSGGGDWHMAYITMYKARFVSM | binds
ubiquitin‐specific protease UBP4 (enzyme, UniProt Q8LAM0 1-365) MGAAGSKLEKALGDQFPEGERYFGFENFGNTCYCNSVLQALYFCAPFREQLLEHYANNKADAEENLLTCLADLFSQISSQKKKTGVIAPKRFVQRLKKQNELFRSYMHQDAHEFLNYLLNELVEILEKETQATKADNETSSSPEKIANVLKAPLANGVHKEPIVTWVHKIFQGILTNETRCLRCETVTARDETFLDLSLDIEQNSSITSCLKNFSSTETLHAEDKFFCDKCCSLQEAQKRMKIKKPPHILVIHLKRFKYMEQLGRYKKLSYRVVFPLELKLSNTVDEYVDIEYSLFAVVVHVGSGPNHGHYVSLVKSHNHWLFFDDESVEIIEESAVQTFFGSSQEYSSNTDHGYILLYESLGTR | binds
Proteasome component (PCI) domain protein AT4G19006.1 (protein, UniProt Q8GYA6 1-386) MAALQYLESQKNAHPELGEWYNSLADLYQKKLWHQLTLKLEQFIALSVFQAGDALIQLYNNFITDFETRINLLKLAHFAVVVSRQYPEKEAAVSYLEGVIEKLKATKESRINEPISYIETQIALFKLEQGDQKECKKILDDGKSLLDSMTDIDPSVYANFFWVSSQYHKVRQEFSEFYKNALLYLAYTSVDSLSESFKLDLAFDLSLSALLGENIYNFGELLAHPILKSLLGTNVEWLYHILQAFNHGDLVQYQELCRVHNASLSAQPALVENEKKLLEKINILCLIEIIFSRPAEDRTIPLSVIAERTKLSIEDVEHLLMKSLSVHLIEGILDQVNGTVYVSWAQPRVLGIPQIKSLRDQLDSWVDKVHTTLLSVEAETPDLVAA | binds
RPN1A, 26S proteasome regulatory subunit S2 1A (protein, UniProt Q9SIV2 1-891) MAPTQDPNSVGGGAKKDEATLKVPSKDPKKKDEKKDEDLSEEDLELKQNLELYVERVQDPNPELQKAALESMRQEIRASTSSMTSVPKPLKFLRPHYGTLKAFHETMADSDLKKYLSDILSVLALTMSADGERESLRFRLIGTEGDIGSWGHEYVRNLAGEIAQEYTKRQSEEASIDDLMELVQQIVAFHMKHNAETEAVDLLMDVEDLDLLLEHVDKTNFKRTCNYLTSAARYLPGPDDMLVLDISYMIYMKFEEYPNALQIALFLDNTQYVKQVFTSCTDLLKKKQFCYMIARHGITFELDDEMVADDDDREALQDIVNNTKLSEGYLTLARDIEVMEAKTPEDIYKAHLLDGRASSGASVDSARQNLAATFVNAFVNAGFGQDKLMTVPSDSTTGSSGNWLFKNKEHGKTSAAASLGMIQLWDVDSGLSQLDKYFHSNDNPIIAGALLGVGIVNCGIKNDCDPALALLGDYIDKEDSSVRIGAIMGLGISYAGSQNDQIRNKLSPILNDAKAPLDVIAFASLSLGMIYVGSCNEEVAQSIIFALMDRSEAELGDALTRFLPLGLGLLYLGKQESVEATAEVSKTFNEKIRKYCDMTLLSCAYAGTGNVLKVQDLLAQCGEHLEKGDIHQGPAVLGLAMVAMSEELGVDMEIRSLERMLQYGEQNIRRAVPLALGLLCISNPKVTVMDTLSRLSHDTDSEVAMSAIISLGLIGAGTNNARIAGMLRNLSSYYYKDMSLLFCVRIAQGLVHMGKGLLTLSPFHSERFLLSPTALAGIVTLLHACLDMKPIILGKYHYVLYFLVLAMQPRMMLTVDENLKPLSVPVRVGQAVDVVGQAGRPKTITGFQTHSTPVLLAAGERAELATDKYIPLSPILEGFIILKENPDYREE | binds
ubiquitin‐specific protease UBP14 (enzyme, UniProt Q8L6Y1 1-797) MELLRSNLSRVQIPEPTHRIYKHECCISFDTPRSEGGLFVDMNSFLAFGKDYVSWNYEKTGNPVYLHIKQTRKSIPEDRPLKKPTLLAIGVDGGFDNNEPEYEESYSIVILPDFVSLPFPSVELPEKVRIAVDTVVNAVGAERKEQVAAWTAEKKLISEHALTLQQIKSGIVIPPSGWKCSKCDKTENLWLNLTDGMILCGRKNWDGTGGNNHAVEHYKETAYPLAVKLGTITADLEAADVYSYPEDDSVLDPLLAEHLAHFGIDFSSMQKTEMTTAERELDQNTNFDWNRIQESGKELVPVFGPGYTGLVNLGNSCYLAATMQIVFSTHSFISRYFSHQSLKMAFEMAPADPTLDLNMQLTKLGHGLLSGKYSMPATQKDATTGDPRQEGIPPRMFKNVIAASHAEFSSMRQQDALDFFLHLVGKVERASNTTPDLDPSRSFKFGIEEKILCPSGKVGYNKREDCILSLNIPLHEATNKDELEAFHKQKAGKGLEENDMRSSDEIVRPRVPLEACLANFASSEPIEDYYSSALKGMTTAIKTTGLTSFPDYLVLHMRKFVMEEGWVPKKLDVYIDVPDVIDISHMRSKGLQPGEELLPDGVPEEVMESAQPVANEEIVAQLVSMGFSQLHCQKAAINTSNAGVEEAMNWLLSHMDDPDIDAPISHQTSDIDQSSVDTLLSFGFAEDVARKALKASGGDIEKATDWVFNNPNASVSDMDVSSSNSAQTPAQSGLPDGGGKYKLFGIVSHMGTSVHCGHYVAHILKEGRWVIFNDDKVGISTDPPKDMGYVYFFQRLD | binds

Further lines, results first:

binding | Molecule
binds | 20S proteasome alpha subunit PAD1 (from UniProt P30186 1-250)
binds | 26S proteasome regulatory complex, non‐ATPase subcomplex, Rpn2/Psmd1 subunit (AT1G04810.1) (from UniProt Q9MAT0 1-1001)
binds | UPL2, ubiquitin‐protein ligase 2 (from UniProt Q8H0T4 1-3658) (enzyme)
binds | Proteasome component (PCI) domain protein AT3G02200.2
binds | CSN4, Proteasome component (PCI) domain protein AT5G42970.1 (protein, UniProt Q8L5U0 1-397) MDEALTNASAIGDQRQKIEQYKLILSSVLSSNDLLQAQRFIDHILSDDVPLVVSRQLLQSFAQELGRLEPETQKEIAQFTLTQIQPRVVSFEEQALVIREKLAGLYESEQEWSKAAQMLSGIDLDSGMRAVDDNFKLSKCIQIARLYLEDDDAVNAEAFINKASFLVSNSQNEVLNLQYKVCYARILDMKRKFLEAALRYYGISQIEQRQIGDEEIDENALEQALSAAVTCTILAGAGPQRSRVLATLYKDERCSKLKIYPILQKVYLERILRRPEIDAFSEELRPHQKASLPDKSTVLDRAMIEHNLLSASKLYTNIRFDELGTLLAIDPRKAEKIAANMIGQDRMRGSIDQEEAVIHFEDDVEELQQWDQQISGLCQALNDILDGMAKKGMSVPV
binds | CSN3, Proteasome component (PCI) domain protein AT5G14250.1 (protein, UniProt Q8W575 1-429) MIGAVNSVEAVITSIQGLSGSPEDLSALHDLLRGAQDSLRAEPGVNFSTLDQLDASKHSLGYLYFLEVLTCGPVSKEKAAYEIPIIARFINSCDAGQIRLASYKFVSLCKILKDHVIALGDPLRGVGPLLNAVQKLQVSSKRLTALHPDVLQLCLQAKSYKSGFSILSDDIVEIDQPRDFFLYSYYGGMICIGLKRFQKALELLYNVVTAPMHQVNAIALEAYKKYILVSLIHNGQFTNTLPKCASTAAQRSFKNYTGPYIELGNCYNDGKIGELEALVVARNAEFEEDKNLGLVKQAVSSLYKRNILRLTQKYLTLSLQDIANMVQLGNAKEAEMHVLQMIQDGQIHALINQKDGMVRFLEDPEQYKSSEMIEIMDSVIQRTIGLSKNLLAMDESLSCDPLYLGKVGRERQRYDFGDDFDTVPQKFSM
binds | UBA1, ubiquitin‐activating enzyme 1 (enzyme, UniProt P93028 1-1080) MLHKRASEANDKNDNTIIGSDLASSKKRRIDFTESSSDKSSSILASGSSRGFHGDSVVQQIDMAFGNSNRQEIDEDLHSRQLAVYGRETMRRLFASNVLISGMHGLGAEIAKNLILAGVKSVTLHDERVVELWDLSSNFVFSEDDVGKNRADASVQKLQDLNNAVVVSSLTKSLNKEDLSGFQVVVFSDISMERAIEFDDYCHSHQPPIAFVKADVRGLFGSVFCDFGPEFAVLDVDGEEPHTGIIASISNENQAFISCVDDERLEFEDGDLVVFSEVEGMTELNDGKPRKIKSTRPYSFTLDEDTTNYGTYVKGGIVTQVKQPKLLNFKPLREALKDPGDFLFSDFSKFDRPPLLHLAFQALDHFKAEAGRFPVAGSEEDAQKLISIATAINTGQGDLKVENVDQKLLRHFSFGAKAVLNPMAAMFGGIVGQEVVKACSGKFHPLFQFFYFDSVESLPSEPVDSSDFAPRNSRYDAQISVFGAKFQKKLEDAKVFTVGSGALGCEFLKNLALMGVSCGSQGKLTVTDDDIIEKSNLSRQFLFRDWNIGQAKSTVAASAAAVINPRFNIEALQNRVGAETENVFDDAFWENLTVVVNALDNVNARLYVDSRCLYFQKPLLESGTLGTKCNTQSVIPHLTENYGASRDPPEKQAPMCTVHSFPHNIDHCLTWARSEFEGLLEKTPAEVNAYLSSPVEYTNSMMSAGDAQARDTLERIVECLEKEKCETFQDCLTWARLRFEDYFVNRVKQLIYTFPEDAATSTGAPFWSAPKRFPRPLQYSSSDPSLLNFITATAILRAETFGIPIPEWTKNPKEAAEAVDRVIVPDFEPRQDAKIVTDEKATTLTTASVDDAAVIDDLIAKIDQCRHNLSPDFRMKPIQFEKDDDTNYHMDVIAGLANMRARNYSIPEVDKLKAKFIAGRIIPAIATSTAMATGLVCLELYKVLDGGHKVEAYRNTFANLALPLFSMAEPLPPKVVKHRDMAWTVWDRWVLKGNPTLREVLQWLEDKGLSAYSISCGSCLLFNSMFTRHKERMDKKVVDLARDVAKVELPPYRNHLDVVVACEDEDDNDVDIPLVSIYFR

These are yes or no findings as the source states them, for the method shown. In cells and extracts the contact can be indirect. A yes stands for co-enrichment or nearness to the bait. Other partners may have been found. Where a sequence is shown, tags or fusion partners need not be part of it.
